From PMC9830214 come the findings set out here.

No constants are given. Whether binding was seen depends on the method and setting. In cells and extracts the contact can be indirect. Binding calls can cover weak binding; strength is not graded here. Sequences can lack the tags named with a protein.

The target of the assay is HA-TMEM63B-QS (mouse). Put plainly: co-IP; HEK293T cells co-expressing HA-TMEM63B-QS and FLAG-TMEM63B-QL or -QS; lysate (RIPA buffer), anti-HA antibody at 4 °C overnight, Protein G agarose beads, eluted with 0.1 M glycine pH 2.5; blot for FLAG.

B1: FLAG-TMEM63B-QL (protein, UniProt Q3TWI9 1-832)
chain: MLPFLLATLGTAALNSSNPKDYCYSARIRSTVLQGLPFGGVPTVLALDFMCFLALLFLFSILRKVAWDYGRLALVTDADRLRRQERERVEQEYVASAMHGDSHDRYERLTSVSSSVDFDQRDNGFCSWLTAIFRIKDDEIRDKCGGDAVHYLSFQRHIIGLLVVVGVLSVGIVLPVNFSGDLLENNAYSFGRTTIANLKSGNNLLWLHTSFAFLYLLLTVYSMRRHTSKMRYKEDDLVKRTLFINGISKYAESEKIKKHFEEAYPNCTVLEARPCYNVARLMFLDAERKKAERGKLYFTNLQSKENVPAMINPKPCGHLCCCVVRGCEQVEAIEYYTKLEQRLKEDYRREKEKVNEKPLGMAFVTFHNETITAIILKDFNVCKCQGCTCRGEPRASSCSEALHISNWTVTYAPDPQNIYWEHLSIRGFIWWLRCLVINVVLFILLFFLTTPAIIITTMDKFNVTKPVEYLNNPIITQFFPTLLLWCFSALLPTIVYYSAFFEAHWTRSGENRTTMHKCYTFLIFMVLLLPSLGLSSLDLFFRWLFDKKFLAEAAIRFECVFLPDNGAFFVNYVIASAFIGNAMDLLRIPGLLMYMIRLCLARSAAERRNVKRHQAYEFQFGAAYAWMMCVFTVVMTYSITCPIIVPFGLMYMLLKHLVDRYNLYYAYLPAKLDKKIHSGAVNQVVAAPILCLFWLLFFSTMRTGFLAPTSMFTFVVLVITIVICLCHVCFGHFKYLSAHNYKIEHTETDAVSSRSNGRPPTAGAVPKSAKYIAQVLQDSEGDGDGDGAPGSSGDEPPSSSSQDEELLMPPDGLTDTDFQSCEDSLIENEIHQ
For B1, the binding result was “binds”.
